Measurements: publication PMC4077619
No constants are given. Whether binding was seen depends on the method and setting. In cells and extracts the contact can be indirect. Sequences can lack the tags named with a protein.

Protein sequences, listed by entry. Tags and fused reporters are not part of them. Lines headed by an entry give the natural chain unless they say otherwise; changes in a name come on top.
UniProt O81826: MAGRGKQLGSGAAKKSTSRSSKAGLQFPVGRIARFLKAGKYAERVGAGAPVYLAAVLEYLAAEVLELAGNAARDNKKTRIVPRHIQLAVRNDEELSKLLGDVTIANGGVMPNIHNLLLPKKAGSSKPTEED

Molecular target: T1, CRLuc-SLR1 (rice SLENDER RICE 1 fused to the C-terminal fragment of Renilla luciferase) (rice) (UniProt Q7G7J6)
T1 sequence: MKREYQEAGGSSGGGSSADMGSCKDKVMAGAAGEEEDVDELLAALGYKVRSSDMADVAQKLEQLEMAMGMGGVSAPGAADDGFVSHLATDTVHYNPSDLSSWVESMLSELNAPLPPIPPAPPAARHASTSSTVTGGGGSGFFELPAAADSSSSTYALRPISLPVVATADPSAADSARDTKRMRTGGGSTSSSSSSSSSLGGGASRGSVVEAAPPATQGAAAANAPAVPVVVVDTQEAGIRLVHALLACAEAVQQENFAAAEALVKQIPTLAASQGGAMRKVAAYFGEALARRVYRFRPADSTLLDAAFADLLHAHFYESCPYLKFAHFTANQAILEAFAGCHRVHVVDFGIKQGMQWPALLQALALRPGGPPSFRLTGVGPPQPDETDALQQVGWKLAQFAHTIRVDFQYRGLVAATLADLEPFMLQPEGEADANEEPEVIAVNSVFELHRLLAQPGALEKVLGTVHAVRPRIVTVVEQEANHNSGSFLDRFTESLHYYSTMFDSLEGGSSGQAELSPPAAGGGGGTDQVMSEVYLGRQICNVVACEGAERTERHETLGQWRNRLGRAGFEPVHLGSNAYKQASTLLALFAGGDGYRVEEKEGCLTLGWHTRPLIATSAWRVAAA
Test: split reporter; split Renilla luciferase complementation in living rice protoplasts, 96-well plate, W5 buffer, ViviRen substrate, RLU read 16 h after transformation; no hormone added (before the hormone or with W5 buffer only); H2A-H2B also tested with GA3 (Figure S1), RLU not increased

Q: “NRLuc-H2A (Arabidopsis HISTONE 2A fused to the N-terminal fragment of Renilla luciferase) (from UniProt O81826 1-131)” was tested. Which binding did it give?
A: Its binding is “no binding”.
